Test [1] has as its target GFP-tagged PRPF19 (human) (UniProt Q9UMS4). Description: co-IP; GFP-tagged RBUL or GFP empty vector transiently expressed in HEK293T; lysis in mRIPA buffer; GFP-trap agarose beads, 1 h at 4 °C; Western blot.
In test [2] the target is endogenous PRPF19 (human (endogenous in HEK293T)) (UniProt Q9UMS4). Description: co-IP; endogenous PRPF19 pulled down with a PRPF19-specific antibody from untransfected HEK293T cells; control omitting the antibody; Western blot.
Test [3] addresses T1, GFP-tagged MEX3B (human) (UniProt Q6ZN04).
T1 sequence: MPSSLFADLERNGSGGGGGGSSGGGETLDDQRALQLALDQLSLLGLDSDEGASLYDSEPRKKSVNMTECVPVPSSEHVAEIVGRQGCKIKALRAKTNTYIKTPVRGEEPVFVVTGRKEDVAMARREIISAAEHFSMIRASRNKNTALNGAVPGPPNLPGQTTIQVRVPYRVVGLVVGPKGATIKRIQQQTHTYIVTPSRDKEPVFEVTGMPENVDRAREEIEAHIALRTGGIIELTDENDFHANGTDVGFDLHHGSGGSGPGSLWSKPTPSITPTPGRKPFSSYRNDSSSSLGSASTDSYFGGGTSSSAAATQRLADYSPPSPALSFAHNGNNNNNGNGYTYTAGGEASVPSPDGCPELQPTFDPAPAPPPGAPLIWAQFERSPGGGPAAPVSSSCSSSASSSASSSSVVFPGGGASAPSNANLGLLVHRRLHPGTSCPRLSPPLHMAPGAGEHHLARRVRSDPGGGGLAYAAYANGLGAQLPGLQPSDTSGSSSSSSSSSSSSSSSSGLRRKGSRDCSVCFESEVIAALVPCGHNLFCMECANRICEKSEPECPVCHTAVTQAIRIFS
Description: co-IP; GFP-tagged RBUL or GFP empty vector transiently expressed in HEK293T; lysis in mRIPA buffer; GFP-trap agarose beads, 1 h at 4 °C; Western blot.

Sequences of proteins named here, by UniProt entry; tags and fusion partners are left off.
UniProt Q9UMS4: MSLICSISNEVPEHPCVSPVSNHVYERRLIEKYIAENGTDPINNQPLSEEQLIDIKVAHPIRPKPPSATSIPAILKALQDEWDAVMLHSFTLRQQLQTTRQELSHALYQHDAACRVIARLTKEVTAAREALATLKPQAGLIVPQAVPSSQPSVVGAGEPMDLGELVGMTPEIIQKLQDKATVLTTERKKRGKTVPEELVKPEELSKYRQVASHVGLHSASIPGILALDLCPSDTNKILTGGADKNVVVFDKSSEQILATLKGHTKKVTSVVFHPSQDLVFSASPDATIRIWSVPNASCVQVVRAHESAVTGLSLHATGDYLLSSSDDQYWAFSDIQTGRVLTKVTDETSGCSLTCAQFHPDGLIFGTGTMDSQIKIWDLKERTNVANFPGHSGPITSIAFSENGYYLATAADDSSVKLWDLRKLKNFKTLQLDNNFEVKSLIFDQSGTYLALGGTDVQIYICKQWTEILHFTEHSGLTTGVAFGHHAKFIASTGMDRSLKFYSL
UniProt O95816: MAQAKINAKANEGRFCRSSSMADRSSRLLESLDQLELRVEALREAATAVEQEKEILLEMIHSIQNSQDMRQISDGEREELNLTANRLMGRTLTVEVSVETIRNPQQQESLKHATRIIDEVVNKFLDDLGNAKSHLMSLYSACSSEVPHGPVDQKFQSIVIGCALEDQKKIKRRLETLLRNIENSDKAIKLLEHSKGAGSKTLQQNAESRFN
UniProt O95602: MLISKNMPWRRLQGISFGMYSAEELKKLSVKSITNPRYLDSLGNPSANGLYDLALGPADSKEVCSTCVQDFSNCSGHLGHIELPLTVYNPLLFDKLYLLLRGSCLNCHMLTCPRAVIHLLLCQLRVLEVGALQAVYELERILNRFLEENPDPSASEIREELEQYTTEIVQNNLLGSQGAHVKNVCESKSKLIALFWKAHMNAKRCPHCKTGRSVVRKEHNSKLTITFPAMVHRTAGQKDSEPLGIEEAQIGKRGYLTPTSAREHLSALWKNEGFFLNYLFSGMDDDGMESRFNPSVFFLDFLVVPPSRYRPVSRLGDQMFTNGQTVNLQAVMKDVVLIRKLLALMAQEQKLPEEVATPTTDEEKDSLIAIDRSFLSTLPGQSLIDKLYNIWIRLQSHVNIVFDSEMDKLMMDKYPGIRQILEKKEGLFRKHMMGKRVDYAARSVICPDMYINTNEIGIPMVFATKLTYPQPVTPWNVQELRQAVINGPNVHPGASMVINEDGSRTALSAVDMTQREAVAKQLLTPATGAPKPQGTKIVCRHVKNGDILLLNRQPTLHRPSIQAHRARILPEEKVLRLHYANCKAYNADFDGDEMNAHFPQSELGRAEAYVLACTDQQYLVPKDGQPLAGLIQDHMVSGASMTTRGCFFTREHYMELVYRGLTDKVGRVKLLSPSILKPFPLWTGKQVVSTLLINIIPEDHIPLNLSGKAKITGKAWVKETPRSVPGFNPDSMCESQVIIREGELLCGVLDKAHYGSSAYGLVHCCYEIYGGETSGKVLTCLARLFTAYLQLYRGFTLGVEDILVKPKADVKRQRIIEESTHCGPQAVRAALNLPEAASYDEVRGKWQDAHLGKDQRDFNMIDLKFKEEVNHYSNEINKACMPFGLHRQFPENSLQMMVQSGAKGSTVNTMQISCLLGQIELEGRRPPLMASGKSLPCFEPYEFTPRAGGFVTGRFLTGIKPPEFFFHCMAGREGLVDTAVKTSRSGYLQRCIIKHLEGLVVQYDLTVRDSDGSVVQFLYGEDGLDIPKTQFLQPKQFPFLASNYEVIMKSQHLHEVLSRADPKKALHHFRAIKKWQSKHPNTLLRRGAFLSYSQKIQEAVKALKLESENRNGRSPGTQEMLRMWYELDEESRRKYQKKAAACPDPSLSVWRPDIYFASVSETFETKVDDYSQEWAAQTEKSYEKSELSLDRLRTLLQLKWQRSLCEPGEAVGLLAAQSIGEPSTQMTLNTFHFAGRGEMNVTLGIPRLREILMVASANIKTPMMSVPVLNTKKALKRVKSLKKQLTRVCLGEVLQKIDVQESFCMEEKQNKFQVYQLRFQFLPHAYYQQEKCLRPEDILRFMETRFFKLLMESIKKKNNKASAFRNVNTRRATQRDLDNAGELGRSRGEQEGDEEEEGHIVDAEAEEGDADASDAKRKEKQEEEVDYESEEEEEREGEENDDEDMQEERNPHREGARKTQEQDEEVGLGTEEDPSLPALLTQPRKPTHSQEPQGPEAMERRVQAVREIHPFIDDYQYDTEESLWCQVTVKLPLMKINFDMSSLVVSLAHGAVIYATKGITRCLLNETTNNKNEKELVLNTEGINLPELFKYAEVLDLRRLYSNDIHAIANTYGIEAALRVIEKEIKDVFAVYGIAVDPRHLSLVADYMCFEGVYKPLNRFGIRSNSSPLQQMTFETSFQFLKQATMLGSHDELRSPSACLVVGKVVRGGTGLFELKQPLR
UniProt P0DMV8: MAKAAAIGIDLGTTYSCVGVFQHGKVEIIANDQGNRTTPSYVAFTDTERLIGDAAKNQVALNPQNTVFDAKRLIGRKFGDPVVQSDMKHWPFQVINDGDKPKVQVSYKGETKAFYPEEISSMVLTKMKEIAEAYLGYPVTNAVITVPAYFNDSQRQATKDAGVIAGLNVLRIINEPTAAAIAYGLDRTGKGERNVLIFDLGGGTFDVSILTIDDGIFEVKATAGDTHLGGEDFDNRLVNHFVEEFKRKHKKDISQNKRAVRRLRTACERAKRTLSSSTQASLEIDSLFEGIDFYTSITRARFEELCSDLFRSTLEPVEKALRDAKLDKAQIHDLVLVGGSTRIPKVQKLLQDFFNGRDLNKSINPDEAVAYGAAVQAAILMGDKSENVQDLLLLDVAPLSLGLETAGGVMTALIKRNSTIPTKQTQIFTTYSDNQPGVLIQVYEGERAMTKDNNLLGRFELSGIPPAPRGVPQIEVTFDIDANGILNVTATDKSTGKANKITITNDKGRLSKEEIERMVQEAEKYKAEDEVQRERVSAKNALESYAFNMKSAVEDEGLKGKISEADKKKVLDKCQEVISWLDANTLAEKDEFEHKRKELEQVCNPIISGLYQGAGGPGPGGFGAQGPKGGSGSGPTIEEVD
UniProt P46379: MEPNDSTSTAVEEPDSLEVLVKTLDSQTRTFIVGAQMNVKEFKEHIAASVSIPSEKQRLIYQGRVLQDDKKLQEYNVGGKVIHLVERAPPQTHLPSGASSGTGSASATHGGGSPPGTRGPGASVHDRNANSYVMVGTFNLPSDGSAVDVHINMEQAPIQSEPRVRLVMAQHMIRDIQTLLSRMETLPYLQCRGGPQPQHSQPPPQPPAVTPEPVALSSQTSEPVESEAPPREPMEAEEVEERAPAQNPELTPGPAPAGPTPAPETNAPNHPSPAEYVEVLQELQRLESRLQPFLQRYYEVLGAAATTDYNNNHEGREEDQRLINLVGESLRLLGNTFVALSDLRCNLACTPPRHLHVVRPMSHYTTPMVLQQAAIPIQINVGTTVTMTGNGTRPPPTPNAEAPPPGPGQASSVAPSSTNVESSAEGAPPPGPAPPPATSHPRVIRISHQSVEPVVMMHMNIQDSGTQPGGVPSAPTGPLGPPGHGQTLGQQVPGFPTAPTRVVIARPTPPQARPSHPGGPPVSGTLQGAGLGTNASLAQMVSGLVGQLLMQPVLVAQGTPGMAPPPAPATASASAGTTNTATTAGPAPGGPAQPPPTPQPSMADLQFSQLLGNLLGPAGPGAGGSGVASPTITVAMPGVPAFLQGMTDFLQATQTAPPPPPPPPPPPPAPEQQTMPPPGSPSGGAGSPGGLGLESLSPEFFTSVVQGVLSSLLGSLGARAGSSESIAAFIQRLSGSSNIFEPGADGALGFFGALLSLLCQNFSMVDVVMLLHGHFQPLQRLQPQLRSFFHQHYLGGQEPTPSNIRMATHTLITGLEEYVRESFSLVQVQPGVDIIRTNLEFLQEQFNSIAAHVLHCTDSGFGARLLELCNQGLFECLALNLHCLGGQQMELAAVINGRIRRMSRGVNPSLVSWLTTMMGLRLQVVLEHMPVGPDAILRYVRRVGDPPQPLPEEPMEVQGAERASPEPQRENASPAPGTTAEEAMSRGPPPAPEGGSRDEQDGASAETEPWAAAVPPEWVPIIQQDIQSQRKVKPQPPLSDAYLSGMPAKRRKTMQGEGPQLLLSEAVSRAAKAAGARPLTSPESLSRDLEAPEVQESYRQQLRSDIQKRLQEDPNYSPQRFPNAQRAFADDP

Test [4] deals with T1, GFP-tagged MEX3B (human). The description is as above. The source holds these as a separate data set.

Where two headings read alike, the source gives them in different places. No constants are given. Whether binding was seen depends on the method and setting. Binding seen in cells or lysates may run through a third protein. Some entries that bind do so weakly or less than the wild type. For part of these data: Tags and fused reporters may be left off the sequences shown.

6 molecules from paper PMC5707401 can be followed below.

On to BAG2 (from UniProt O95816 1-211), for which the binding result in test [1] and in test [2] was “binds” in each case.

POLR1A (from UniProt O95602 1-1720): the binding result with GFP-tagged MEX3B (human) [3] is given as “binds”.

For the molecule “ubiquitin-dependent co-chaperone VCP (from UniProt P55072 1-806)”, the binding entry (in the test with GFP-tagged MEX3B (human) [3]; in test [1]; in test [2]) was “binds” each time.

For HSPA1A (from UniProt P0DMV8 1-641), the binding entry in the test with GFP-tagged MEX3B (human) [3] is recorded as “binds”; in test [1], “binds”; in test [2] it was “binds weakly”.

As for BAG6/BAT3 (from UniProt P46379 1-1132), the binding result in test [1] and in test [2] was “binds” each time.

B1: POLR3A (protein, UniProt O14802 1-1390)
chain: MVKEQFRETDVAKKISHICFGMKSPEEMRQQAHIQVVSKNLYSQDNQHAPLLYGVLDHRMGTSEKDRPCETCGKNLADCLGHYGYIDLELPCFHVGYFRAVIGILQMICKTCCHIMLSQEEKKQFLDYLKRPGLTYLQKRGLKKKISDKCRKKNICHHCGAFNGTVKKCGLLKIIHEKYKTNKKVVDPIVSNFLQSFETAIEHNKEVEPLLGRAQENLNPLVVLNLFKRIPAEDVPLLLMNPEAGKPSDLILTRLLVPPLCIRPSVVSDLKSGTNEDDLTMKLTEIIFLNDVIKKHRISGAKTQMIMEDWDFLQLQCALYINSELSGIPLNMAPKKWTRGFVQRLKGKQGRFRGNLSGKRVDFSGRTVISPDPNLRIDEVAVPVHVAKILTFPEKVNKANINFLRKLVQNGPEVHPGANFIQQRHTQMKRFLKYGNREKMAQELKYGDIVERHLIDGDVVLFNRQPSLHKLSIMAHLARVKPHRTFRFNECVCTPYNADFDGDEMNLHLPQTEEAKAEALVLMGTKANLVTPRNGEPLIAAIQDFLTGAYLLTLKDTFFDRAKACQIIASILVGKDEKIKVRLPPPTILKPVTLWTGKQIFSVILRPSDDNPVRANLRTKGKQYCGKGEDLCANDSYVTIQNSELMSGSMDKGTLGSGSKNNIFYILLRDWGQNEAADAMSRLARLAPVYLSNRGFSIGIGDVTPGQGLLKAKYELLNAGYKKCDEYIEALNTGKLQQQPGCTAEETLEALILKELSVIRDHAGSACLRELDKSNSPLTMALCGSKGSFINISQMIACVGQQAISGSRVPDGFENRSLPHFEKHSKLPAAKGFVANSFYSGLTPTEFFFHTMAGREGLVDTAVKTAETGYMQRRLVKSLEDLCSQYDLTVRSSTGDIIQFIYGGDGLDPAAMEGKDEPLEFKRVLDNIKAVFPCPSEPALSKNELILTTESIMKKSEFLCCQDSFLQEIKKFIKGVSEKIKKTRDKYGINDNGTTEPRVLYQLDRITPTQVEKFLETCRDKYMRAQMEPGSAVGALCAQSIGEPGTQMTLKTFHFAGVASMNITLGVPRIKEIINASKAISTPIITAQLDKDDDADYARLVKGRIEKTLLGEISEYIEEVFLPDDCFILVKLSLERIRLLRLEVNAETVRYSICTSKLRVKPGDVAVHGEAVVCVTPRENSKSSMYYVLQFLKEDLPKVVVQGIPEVSRAVIHIDEQSGKEKYKLLVEGDNLRAVMATHGVKGTRTTSNNTYEVEKTLGIEAARTTIINEIQYTMVNHGMSIDRRHVMLLSDLMTYKGEVLGITRFGLAKMKESVLMLASFEKTADHLFDAAYFGQKDSVCGVSECIIMGIPMNIGTGLFKLLHKADRDPNPPKRPLIFDTNEFHIPLVT
As to B1, the binding entry with GFP-tagged MEX3B (human) [4] is “binds”.
